Test results reported in the supplement of paper PMC6411743.
± gives the standard deviation of the averaged measurements. The list shows a part of the results, in another mix than the full data.

Chains of the proteins cited; added tags and fusions are not shown. Lines headed by an entry give the natural chain unless they say otherwise; changes in a name come on top.
UniProt O00189: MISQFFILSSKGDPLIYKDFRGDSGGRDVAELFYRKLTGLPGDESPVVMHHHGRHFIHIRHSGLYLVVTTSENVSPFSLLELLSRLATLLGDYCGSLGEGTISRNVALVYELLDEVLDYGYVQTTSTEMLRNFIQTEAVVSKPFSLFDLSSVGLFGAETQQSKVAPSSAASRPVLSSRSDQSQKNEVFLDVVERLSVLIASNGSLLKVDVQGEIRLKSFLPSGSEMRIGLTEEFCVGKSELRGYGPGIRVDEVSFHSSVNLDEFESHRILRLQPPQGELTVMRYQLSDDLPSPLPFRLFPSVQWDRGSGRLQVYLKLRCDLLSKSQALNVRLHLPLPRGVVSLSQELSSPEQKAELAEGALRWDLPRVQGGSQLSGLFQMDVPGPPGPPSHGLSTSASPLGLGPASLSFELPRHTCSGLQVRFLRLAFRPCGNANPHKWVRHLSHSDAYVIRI
UniProt Q6UB35, whole entry: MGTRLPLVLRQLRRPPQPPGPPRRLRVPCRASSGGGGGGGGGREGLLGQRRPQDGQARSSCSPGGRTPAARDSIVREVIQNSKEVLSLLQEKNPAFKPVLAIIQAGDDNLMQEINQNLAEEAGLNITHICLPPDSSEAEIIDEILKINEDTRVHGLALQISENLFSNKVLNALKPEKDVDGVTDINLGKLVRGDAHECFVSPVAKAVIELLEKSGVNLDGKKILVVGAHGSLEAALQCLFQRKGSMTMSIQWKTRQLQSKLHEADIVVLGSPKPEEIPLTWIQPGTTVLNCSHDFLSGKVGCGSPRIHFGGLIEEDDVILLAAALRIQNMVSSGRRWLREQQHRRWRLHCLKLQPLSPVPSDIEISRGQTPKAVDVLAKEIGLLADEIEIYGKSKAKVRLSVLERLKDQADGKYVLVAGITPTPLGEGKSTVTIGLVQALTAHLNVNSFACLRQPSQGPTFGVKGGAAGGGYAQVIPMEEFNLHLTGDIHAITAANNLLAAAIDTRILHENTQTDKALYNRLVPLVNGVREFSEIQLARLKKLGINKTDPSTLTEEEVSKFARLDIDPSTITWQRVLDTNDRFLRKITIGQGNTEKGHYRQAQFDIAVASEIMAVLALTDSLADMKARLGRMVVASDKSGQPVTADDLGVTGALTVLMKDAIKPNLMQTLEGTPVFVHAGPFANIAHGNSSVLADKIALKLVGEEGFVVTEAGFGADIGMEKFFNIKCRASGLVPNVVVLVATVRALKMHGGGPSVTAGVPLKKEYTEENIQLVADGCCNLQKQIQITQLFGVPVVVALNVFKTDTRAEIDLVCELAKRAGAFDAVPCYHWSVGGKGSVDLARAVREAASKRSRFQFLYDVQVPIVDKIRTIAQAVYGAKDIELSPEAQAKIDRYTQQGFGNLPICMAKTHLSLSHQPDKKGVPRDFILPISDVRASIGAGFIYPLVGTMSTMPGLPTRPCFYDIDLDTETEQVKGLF
UniProt Q9NQG6: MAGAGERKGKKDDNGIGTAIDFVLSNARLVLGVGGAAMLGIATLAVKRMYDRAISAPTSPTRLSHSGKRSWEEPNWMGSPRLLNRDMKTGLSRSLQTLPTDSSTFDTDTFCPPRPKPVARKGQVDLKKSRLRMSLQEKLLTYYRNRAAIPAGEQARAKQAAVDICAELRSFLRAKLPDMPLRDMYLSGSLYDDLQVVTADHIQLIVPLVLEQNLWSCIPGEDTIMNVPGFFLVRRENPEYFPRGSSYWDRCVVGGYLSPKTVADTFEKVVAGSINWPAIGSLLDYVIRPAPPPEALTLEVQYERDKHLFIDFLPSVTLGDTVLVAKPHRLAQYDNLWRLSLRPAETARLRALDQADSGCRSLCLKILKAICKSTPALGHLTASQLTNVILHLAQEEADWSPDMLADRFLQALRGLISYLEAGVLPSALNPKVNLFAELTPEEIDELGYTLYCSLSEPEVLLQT
UniProt P57075: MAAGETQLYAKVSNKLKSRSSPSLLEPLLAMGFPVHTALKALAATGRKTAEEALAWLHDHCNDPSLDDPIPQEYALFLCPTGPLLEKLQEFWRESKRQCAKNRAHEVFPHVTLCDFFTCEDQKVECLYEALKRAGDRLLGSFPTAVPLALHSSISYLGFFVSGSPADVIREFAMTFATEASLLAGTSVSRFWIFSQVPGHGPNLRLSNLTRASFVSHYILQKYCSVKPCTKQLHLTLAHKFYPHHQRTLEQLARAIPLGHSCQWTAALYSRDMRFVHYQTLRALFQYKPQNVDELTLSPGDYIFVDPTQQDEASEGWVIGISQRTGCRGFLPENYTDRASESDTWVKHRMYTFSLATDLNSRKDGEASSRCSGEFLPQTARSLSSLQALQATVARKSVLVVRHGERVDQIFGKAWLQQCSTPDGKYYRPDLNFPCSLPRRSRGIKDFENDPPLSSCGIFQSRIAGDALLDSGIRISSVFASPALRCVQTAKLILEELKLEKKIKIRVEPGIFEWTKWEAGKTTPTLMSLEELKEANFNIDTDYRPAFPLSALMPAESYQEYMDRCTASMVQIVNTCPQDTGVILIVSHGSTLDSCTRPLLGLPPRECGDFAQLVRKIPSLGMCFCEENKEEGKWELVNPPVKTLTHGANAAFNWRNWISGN
UniProt Q9BZL6: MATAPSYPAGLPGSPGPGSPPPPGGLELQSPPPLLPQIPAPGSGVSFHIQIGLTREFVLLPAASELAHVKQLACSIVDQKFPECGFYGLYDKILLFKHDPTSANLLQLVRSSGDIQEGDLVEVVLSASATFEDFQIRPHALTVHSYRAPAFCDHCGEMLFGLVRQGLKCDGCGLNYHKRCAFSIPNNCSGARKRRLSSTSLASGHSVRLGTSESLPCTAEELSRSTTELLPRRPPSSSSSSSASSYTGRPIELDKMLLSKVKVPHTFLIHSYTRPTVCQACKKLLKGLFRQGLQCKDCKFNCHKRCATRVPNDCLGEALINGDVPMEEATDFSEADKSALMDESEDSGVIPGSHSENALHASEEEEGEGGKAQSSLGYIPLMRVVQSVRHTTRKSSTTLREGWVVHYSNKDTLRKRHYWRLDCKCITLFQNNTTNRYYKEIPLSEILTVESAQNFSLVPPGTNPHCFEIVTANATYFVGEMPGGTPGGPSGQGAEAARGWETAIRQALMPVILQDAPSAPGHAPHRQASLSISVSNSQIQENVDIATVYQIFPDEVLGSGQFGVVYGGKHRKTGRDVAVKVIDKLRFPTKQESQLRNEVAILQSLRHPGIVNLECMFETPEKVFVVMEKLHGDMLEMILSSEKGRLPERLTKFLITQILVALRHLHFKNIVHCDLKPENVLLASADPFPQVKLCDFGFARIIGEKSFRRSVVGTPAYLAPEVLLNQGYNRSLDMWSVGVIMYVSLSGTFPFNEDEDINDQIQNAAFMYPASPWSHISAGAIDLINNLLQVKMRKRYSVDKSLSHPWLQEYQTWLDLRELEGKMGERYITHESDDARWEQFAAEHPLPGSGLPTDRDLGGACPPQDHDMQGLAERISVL
UniProt P31943: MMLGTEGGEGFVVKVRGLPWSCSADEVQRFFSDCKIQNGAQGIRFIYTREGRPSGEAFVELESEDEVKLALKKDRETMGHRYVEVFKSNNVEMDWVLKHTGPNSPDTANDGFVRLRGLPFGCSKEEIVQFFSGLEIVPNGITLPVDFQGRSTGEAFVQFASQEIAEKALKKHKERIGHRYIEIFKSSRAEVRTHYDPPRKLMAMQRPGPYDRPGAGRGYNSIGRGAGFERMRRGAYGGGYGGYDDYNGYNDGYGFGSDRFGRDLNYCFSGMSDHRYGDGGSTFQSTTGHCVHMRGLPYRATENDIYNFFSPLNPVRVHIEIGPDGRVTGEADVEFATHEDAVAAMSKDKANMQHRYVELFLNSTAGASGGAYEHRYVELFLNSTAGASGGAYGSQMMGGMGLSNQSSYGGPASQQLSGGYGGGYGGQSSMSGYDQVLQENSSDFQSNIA
UniProt P51965: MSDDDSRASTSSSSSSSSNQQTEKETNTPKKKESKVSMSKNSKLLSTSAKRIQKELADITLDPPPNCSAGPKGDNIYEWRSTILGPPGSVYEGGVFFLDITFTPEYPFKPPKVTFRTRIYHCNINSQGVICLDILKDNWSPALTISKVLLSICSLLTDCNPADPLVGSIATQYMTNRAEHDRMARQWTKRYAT
UniProt Q8TCN5: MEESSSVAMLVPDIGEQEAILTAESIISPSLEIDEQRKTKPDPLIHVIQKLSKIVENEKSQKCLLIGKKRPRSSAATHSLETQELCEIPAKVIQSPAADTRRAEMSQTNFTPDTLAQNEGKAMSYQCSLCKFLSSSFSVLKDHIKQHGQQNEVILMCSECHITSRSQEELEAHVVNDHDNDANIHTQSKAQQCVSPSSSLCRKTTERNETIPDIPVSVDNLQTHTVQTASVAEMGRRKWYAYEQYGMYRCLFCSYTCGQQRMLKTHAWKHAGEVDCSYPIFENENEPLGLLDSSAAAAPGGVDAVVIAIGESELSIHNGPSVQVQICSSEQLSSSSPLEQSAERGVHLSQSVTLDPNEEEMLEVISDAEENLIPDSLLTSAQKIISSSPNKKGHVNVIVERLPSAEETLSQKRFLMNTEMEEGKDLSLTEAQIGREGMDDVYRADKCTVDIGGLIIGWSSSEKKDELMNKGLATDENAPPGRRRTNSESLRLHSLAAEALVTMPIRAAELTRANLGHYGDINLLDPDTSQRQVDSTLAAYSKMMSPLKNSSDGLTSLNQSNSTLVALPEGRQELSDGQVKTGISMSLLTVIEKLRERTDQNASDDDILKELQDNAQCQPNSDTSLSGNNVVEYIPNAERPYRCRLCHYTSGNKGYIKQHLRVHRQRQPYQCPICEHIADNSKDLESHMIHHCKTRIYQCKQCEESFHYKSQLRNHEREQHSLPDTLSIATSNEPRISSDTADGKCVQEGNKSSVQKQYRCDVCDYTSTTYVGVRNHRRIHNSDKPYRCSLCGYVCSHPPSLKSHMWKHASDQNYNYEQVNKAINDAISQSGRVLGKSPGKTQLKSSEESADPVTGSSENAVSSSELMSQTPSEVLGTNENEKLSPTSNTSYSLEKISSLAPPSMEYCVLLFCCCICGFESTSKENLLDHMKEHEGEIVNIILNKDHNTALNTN

Compound: Nc1ncnc2c1ncn2[C@@H]1O[C@H](COP(=O)(O)OP(=O)(O)OP(=O)(O)O)[C@@H](O)[C@H]1O [adenosine triphosphate]
Experiment: NP40-soluble protein abundance relative to vehicle (solubility fold change) (ratio); higher = more soluble protein in presence of ATP
Procedure, shortened: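 Eight concentrations, 0.1 to 10 mM, were tested on Jurkat crude lysate for 10 min at room temperature and then 3 min at 37 °C, in three independent experiments. The lysate was solubilised with 0.8% NP40 and benzonase, ultracentrifuged, and the supernatant TMT-labelled for LC-MS/MS. Each value is the fold change against the detergent-processed vehicle in its own replicate, from vsn-normalised intensities.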

Target	NP40-soluble protein abundance (concentration: 1mM)	NP40-soluble protein abundance (concentration: 2mM)	NP40-soluble protein abundance (concentration: 4mM)	NP40-soluble protein abundance (concentration: 6mM)	NP40-soluble protein abundance (concentration: 8mM)	NP40-soluble protein abundance (concentration: 10mM)
C9IZL5 and related entries (UniProt O00189)	1.07 ± 0.11	1.03 ± 0.025	1.02 ± 0.075	1.01 ± 0.16	1.02 ± 0.015	1.02 ± 0.0043
B7ZM99 and related entries (UniProt Q6UB35)	1 ± 0.049	1.01 ± 0.041	0.996 ± 0.035	0.957 ± 0.088	1 ± 0.042	0.996 ± 0.037
B0QY95 and related entries (UniProt Q9NQG6+B0QY95)	0.919 ± 0.038	0.95 ± 0.054	0.979 ± 0.09	0.952 ± 0.086	0.9476 ± 0.0088	0.97 ± 0.05
A0A0U1RRC9|P57075 and related entries (UniProt P57075)	0.973 ± 0.021	0.9511 ± 0.0072	0.9618 ± 0.0088	0.938 ± 0.029	0.977 ± 0.087	1.04 ± 0.06
B4DTS2 and related entries (UniProt Q9BZL6)	1.087 ± 0.0089	1.04 ± 0.033	1.04 ± 0.053	0.974 ± 0.048	1.02 ± 0.027	0.988 ± 0.024
D6RAM1 and related entries (UniProt P31943)	1.04 ± 0.015	1.03 ± 0.015	1.03 ± 0.021	1.03 ± 0.034	1.03 ± 0.025	1.02 ± 0.031
C9J2P0 and related entries (UniProt P51965)	0.926 ± 0.054	0.962 ± 0.04	0.913 ± 0.053	0.964 ± 0.046	0.938 ± 0.073	0.931 ± 0.078
D3YTB1 and related entries (UniProt P62910)	0.931 ± 0.048	0.909 ± 0.1	0.873 ± 0.098	0.766 ± 0.12	0.635 ± 0.18	0.852 ± 0.14
A8MUS3 and related entries (UniProt P62750)	0.937 ± 0.09	0.868 ± 0.073	0.829 ± 0.11	0.812 ± 0.095	0.7 ± 0.052	0.785 ± 0.11
B9EGE7 and related entries (UniProt Q8TCN5)	0.839 ± 0.11	0.911 ± 0.11	0.937 ± 0.063	0.936 ± 0.078	0.911 ± 0.13	0.963 ± 0.061

Only NP40-soluble protein abundance (concentration: 1mM), NP40-soluble protein abundance (concentration: 4mM) and NP40-soluble protein abundance (concentration: 2mM), for some of the entries so far:
Target	NP40-soluble protein abundance (concentration: 1mM)	NP40-soluble protein abundance (concentration: 4mM)	NP40-soluble protein abundance (concentration: 2mM)
B4DTS2 and related entries (UniProt Q9BZL6)	1.087 ± 0.0089	1.04 ± 0.053	1.04 ± 0.033
D6RAM1 and related entries (UniProt P31943)	1.04 ± 0.015	1.03 ± 0.021	1.03 ± 0.015
